Laboratory results published in PubChem BioAssay AID330 (DTP/NCI, 2004).
The list does not hold the whole screen: it gathers tests that were run many times, whatever their T/C, doses with no T/C, and many T/C values between a quarter and a half above the control. Other doses and runs of a compound stand elsewhere. T/C is the treated group as % of the vehicle group. Some entries give survivors of the animals treated and no T/C: the source files T/C as zero there, which appears to mark a toxic dose or a test without result, not a measured value. Some doses without a T/C left all or most animals alive at the check, yet need not have been tolerated: survival well below the control is almost never listed, so the zero probably covers shortened survival too. Survivors were counted at the toxicity check, usually on the fifth day, unless a day is given; later deaths do not show. Schedule codes are those of the source, taken here to give the interval after Q, in days (D) or hours (H), and the number of doses after X. Some entries hold several experiments; the results are listed from low to high. Where survival is the endpoint, this PubChem deposit counts one and a half times the control or more as active, and values a quarter to a half above the control carry no call in these data; other NCI protocols may use other cut-offs. Some T/C values carry the count of animals alive at the toxicity check (mostly the fifth day); where none is given, no animal had died by that day.

Tested on: P388 leukemia ip, CD2F1 mice, survival T/C
Test: NCI In Vivo Anticancer Drug Screen. Data for tumor model P388 Leukemia (intraperitoneal) in CD2F1 (CDF1) mice
Details: T/C endpoint: median survival time, higher T/C = longer survival
[1] = dose: 240.0 mg/kg/injection, schedule: Q01DX005 (ip), vehicle: Klucel (hydroxypropylcellulose) (HPC)
[2] = dose: 100.0 mg/kg/injection, schedule: Q01DX009 (ip), vehicle: saline
[3] = dose: 200.0 mg/kg/injection, schedule: Q01DX009 (ip), vehicle: saline
[4] = dose: 200.0 mg/kg/injection, schedule: Q01DX005 (ip), vehicle: Klucel (hydroxypropylcellulose) (HPC)
[5] = dose: 200.0 mg/kg/injection, schedule: Q01DX009 (ip), vehicle: saline with Tween-80
[6] = dose: 200.0 mg/kg/injection, schedule: Q01DX005 (ip), vehicle: saline with Tween-80

What does the source list for `Cc1ccc(C)n1-c1ccsc1C(=O)NNC(=O)CCl`?
survivor count (dose: 60.0 mg/kg/injection, schedule: Q01DX005 (ip), vehicle: Klucel (hydroxypropylcellulose) (HPC)): 5 of 6; survivor count (dose: 120.0 mg/kg/injection, schedule: Q01DX005 (ip), vehicle: Klucel (hydroxypropylcellulose) (HPC)): 0 of 6; survivor count [1]: 0 of 6

How did the survivor count (dose: 16.5 mg/kg/injection, schedule: Q01DX005 (ip), vehicle: Klucel (hydroxypropylcellulose) (HPC)) turn out when `C[C@H]1C(=O)CCC2[C@]3(C)CC4OC(=O)C5(CC[C@@]6(C)CCC(C)(C)CC6C45C)C3CC[C@@]21C` (some centres not stated) was run?
Its survivor count is 6 of 6.

What about the survivor count (dose: 33.0 mg/kg/injection, schedule: Q01DX005 (ip), vehicle: Klucel (hydroxypropylcellulose) (HPC)) of the same compound?
The survivor count was 6 of 6.

And the survivor count (dose: 66.0 mg/kg/injection, schedule: Q01DX005 (ip), vehicle: Klucel (hydroxypropylcellulose) (HPC))?
The survivor count was 6 of 6.

For `CC/C(=C(\CC)c1ccc(OCCN(C)C)cc1)c1ccc(OCCN(C)C)cc1`, which survivor count (dose: 25.0 mg/kg/injection, schedule: Q01DX005 (ip), vehicle: saline) is on record?
The survivor count was 3 of 6.

What about the survivor count (dose: 50.0 mg/kg/injection, schedule: Q01DX005 (ip), vehicle: saline) of the same compound?
Its survivor count is 0 of 6.

And the survivor count (dose: 100.0 mg/kg/injection, schedule: Q01DX005 (ip), vehicle: saline)?
The survivor count was 0 of 6.

And the survivor count (dose: 200.0 mg/kg/injection, schedule: Q01DX005 (ip), vehicle: saline)?
The survivor count was 0 of 6.

For `COc1ccc2c(NCCCCCCCCNc3c4ccc(OC)cc4nc4c(OC)cccc34)c3cccc(OC)c3nc2c1`, which T/C (dose: 1.25 mg/kg/injection, schedule: Q01DX009 (ip), vehicle: other) is on record?
Its T/C is 148 % of control.

And the survivor count (dose: 10.0 mg/kg/injection, schedule: Q01DX009 (ip), vehicle: other)?
Its survivor count is 6 of 6.

And the survivor count (dose: 20.0 mg/kg/injection, schedule: Q01DX009 (ip), vehicle: other)?
Its survivor count is 2 of 6.

With `OC1C(CCl)OC(OC2(CCl)OC(CCl)C(O)C2O)C(O)C1O` (configuration not stated) as the compound, how does the survivor count (dose: 50.0 mg/kg/injection, schedule: Q01DX009 (ip), vehicle: Klucel (hydroxypropylcellulose) (HPC)) read?
The survivor count was 6 of 6.

What about the survivor count (dose: 100.0 mg/kg/injection, schedule: Q01DX009 (ip), vehicle: Klucel (hydroxypropylcellulose) (HPC)) of the same compound?
Its survivor count is 6 of 6.

What about the survivor count (dose: 200.0 mg/kg/injection, schedule: Q01DX009 (ip), vehicle: Klucel (hydroxypropylcellulose) (HPC)) of the same compound?
Its survivor count is 6 of 6.

What does the source list for `COC(=O)N(C)SN(C)C(=O)O/N=C(\SC)C(=O)N(C)C`?
survivor count (dose: 6.25 mg/kg/injection, schedule: Q01DX009 (ip), vehicle: saline): 0 of 6; survivor count (dose: 12.5 mg/kg/injection, schedule: Q01DX009 (ip), vehicle: saline): 0 of 6; survivor count (dose: 25.0 mg/kg/injection, schedule: Q01DX009 (ip), vehicle: saline): 0 of 6; survivor count (dose: 50.0 mg/kg/injection, schedule: Q01DX009 (ip), vehicle: saline): 0 of 6; survivor count [2]: 0 of 6; survivor count [3]: 0 of 6

How did the survivor count [4] turn out when `CCCC1OP(=O)(N2CC(C)N(P3(=O)OCC(CC)C(CCC)O3)CC2C)OCC1CC` (configuration not stated) was run?
Its survivor count is 5 of 5.

Which survivor count [5] does the source give for `CCCCCCCCCCSCC(N)C(=O)OCC` (configuration not stated) here?
The survivor count was 3 of 6.

Which survivor count [4] does the source give for `OCCN(CCO)CC(O)c1cc(-c2ccccc2)nc2ccccc12` (configuration not stated) here?
The survivor count was 0 of 5.

Which results are given for `CC(C)(C)c1ccc(O)c(O)c1`?
survivor count [2]: 2 of 6 and 5 of 6; survivor count [3]: 0 of 6; survivor count (dose: 400.0 mg/kg/injection, schedule: Q01DX009 (ip), vehicle: saline): 0 of 6; survivor count (dose: 600.0 mg/kg/injection, schedule: Q01DX009 (ip), vehicle: saline): 0 of 6

How did the T/C (dose: 1.56 mg/kg/injection, schedule: Q01DX009 (ip), vehicle: saline with Tween-80) turn out when `CC(=O)OC(C)C1C2=C(C(=O)CC1(C)O)C(=O)c1c(ccc(-c3ccc4c(c3O)C(=O)C3=C(C4=O)C(C(C)OC(C)=O)C(C)(O)CC3=O)c1O)C2=O` (configuration not stated) was run?
The T/C was 144 % of control.

What about the survivor count (dose: 12.5 mg/kg/injection, schedule: Q01DX009 (ip), vehicle: saline with Tween-80) of the same compound?
The survivor count was 6 of 6.

What does the source list for `Cc1cc(N)n2c(nc3ccccc32)c1C#N`?
survivor count (dose: 120.0 mg/kg/injection, schedule: Q01DX005 (ip), vehicle: saline with Tween-80): 2 of 6; survivor count (dose: 240.0 mg/kg/injection, schedule: Q01DX005 (ip), vehicle: saline with Tween-80): 1 of 6

`CC1(C)COC(=O)/C1=C1\SC(=S)NC1=O` was tested. Which survivor count (dose: 400.0 mg/kg/injection, schedule: Q04DX003 (ip), vehicle: saline) did it give?
The survivor count was 4 of 6.

Which survivor count [1] does the source give for `Cc1cc(O)c(C(=O)/C=C/c2ccnc3ccccc23)c(=O)o1` here?
The survivor count was 0 of 6.

Which survivor count (dose: 50.0 mg/kg/injection, schedule: Q01DX005 (ip), vehicle: saline with Tween-80) does the source give for `[N-]=[N+]=Nc1ccccc1C(=O)NCCCNC(=O)c1ccccc1N=[N+]=[N-]` here?
Its survivor count is 6 of 6.

And the survivor count (dose: 100.0 mg/kg/injection, schedule: Q01DX005 (ip), vehicle: saline with Tween-80)?
The survivor count was 6 of 6.

What about the survivor count [6] of the same compound?
Its survivor count is 6 of 6.

How did the survivor count [4] turn out when `CC[C@]12C=CCN3CC[C@@]4(c5ccc(OC)cc5N(C)[C@H]4[C@@](O)(C(=O)OC)[C@@H]1OC(C)=O)[C@@H]32` was run?
Its survivor count is 0 of 6.

How did the T/C (dose: 0.42 mg/kg/injection, schedule: Q01DX009 (ip), vehicle: saline + Tween-80 + alcohol) turn out when `CC(C)(O)/C=C/C(=O)[C@](C)(O)[C@H]1[C@H](O)C[C@@]2(C)[C@@H]3CC=C4[C@@H](C[C@H](O)C(=O)C4(C)C)[C@]3(C)C(=O)C[C@]12C` was run?
Its T/C is 137 % of control [4 of 6 alive].

And the T/C (dose: 0.63 mg/kg/injection, schedule: Q01DX009 (ip), vehicle: saline + Tween-80 + alcohol)?
The T/C was 146 % of control [5 of 6 alive].

And the T/C (dose: 1.0 mg/kg/injection, schedule: Q01DX010 (ip), vehicle: saline)?
The T/C was 131 % of control.

What about the survivor count (dose: 1.4 mg/kg/injection, schedule: Q01DX009 (ip), vehicle: saline with Tween-80) of the same compound?
Its survivor count is 0 of 6.

What about the survivor count (dose: 2.0 mg/kg/injection, schedule: Q01DX009 (ip), vehicle: saline with Tween-80) of the same compound?
Its survivor count is 0 of 6.

What about the survivor count (dose: 2.0 mg/kg/injection, schedule: Q01DX009 (ip), vehicle: saline) of the same compound?
Its survivor count is 0 of 6.

And the survivor count (dose: 2.0 mg/kg/injection, schedule: Q01DX010 (ip), vehicle: saline)?
The survivor count was 3 of 6.

And the survivor count (dose: 2.2 mg/kg/injection, schedule: Q01DX009 (ip), vehicle: saline with Tween-80)?
Its survivor count is 0 of 6.

And the survivor count (dose: 4.0 mg/kg/injection, schedule: Q01DX009 (ip), vehicle: saline)?
Its survivor count is 0 of 6.

What about the survivor count (dose: 5.0 mg/kg/injection, schedule: Q01DX009 (ip), vehicle: saline with Tween-80) of the same compound?
Its survivor count is 0 of 6.

What about the survivor count (dose: 10.0 mg/kg/injection, schedule: Q01DX009 (ip), vehicle: saline with Tween-80) of the same compound?
The survivor count was 0 of 6.

And the survivor count (dose: 20.0 mg/kg/injection, schedule: Q01DX009 (ip), vehicle: saline with Tween-80)?
Its survivor count is 0 of 6.

What about the survivor count (dose: 40.0 mg/kg/injection, schedule: Q01DX009 (ip), vehicle: saline with Tween-80) of the same compound?
The survivor count was 0 of 6.

How did the survivor count (dose: 12.5 mg/kg/injection, schedule: Q04DX003 (ip), vehicle: saline with Tween-80) turn out when `CC(=O)[O][Hg][c]1cc(-c2ccc(N=Nc3c(S(=O)(=O)O)cc4cccc(N)c4c3O)cc2)ccc1N=Nc1c(S(=O)(=O)O)cc2cccc(N)c2c1O` was run?
Its survivor count is 5 of 6.

How did the survivor count (dose: 25.0 mg/kg/injection, schedule: Q01DX009 (ip), vehicle: Klucel (hydroxypropylcellulose) (HPC)) turn out when `CN(C)c1c(-c2ccc(Cl)cc2)cc(-c2ccccc2)[nH]c1=O` was run?
Its survivor count is 6 of 6.

Which results are given for `CC(=O)NCc1cc(C)c(CC#N)cc1CC#N`?
survivor count (dose: 25.0 mg/kg/injection, schedule: Q01DX009 (ip), vehicle: distilled water + Tween-80): 6 of 6; T/C (dose: 50.0 mg/kg/injection, schedule: Q01DX009 (ip), vehicle: distilled water + Tween-80): 126 % of control; survivor count (dose: 100.0 mg/kg/injection, schedule: Q01DX009 (ip), vehicle: distilled water + Tween-80): 3 of 6; survivor count (dose: 200.0 mg/kg/injection, schedule: Q01DX009 (ip), vehicle: distilled water + Tween-80): 0 of 6

With `CC1CC(O)C(CN(C)C)C(C)(C)C1` (configuration not stated) as the compound, how does the survivor count [6] read?
Its survivor count is 0 of 6.

`Clc1ccc(N=c2ccn3ccccc3c2)cc1Cl` was tested. Which survivor count (dose: 50.0 mg/kg/injection, schedule: Q01DX009 (ip), vehicle: saline with Tween-80) did it give?
Its survivor count is 4 of 6.

What about the survivor count (dose: 100.0 mg/kg/injection, schedule: Q01DX009 (ip), vehicle: saline with Tween-80) of the same compound?
The survivor count was 0 of 6.

And the survivor count [5]?
Its survivor count is 0 of 6.
